PubChem BioAssay AID686938, Drosophila RNAi Screening Center, 2013
The deposit covers about 23,000 reagents; shown is a random part of those that have a named target and a result. Over the whole deposit, 75 (0.33%) got an active call. 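Raw plate signals without normalisation; calls rest on plate z-scores that were not deposited; ratio present for only 364 wells.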 A number with no mark means an inactive call. The numbers tell different reagents against one gene apart. Reagent sequences are not shown. The record does not give: the dose of the treatment.

Screen: 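Knock-downs reducing store-operated calcium influx in Drosophila cells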 (primary screen)
Cell system: Drosophila S2R+ cells
Reagent: long dsRNA against Drosophila genes, about 0.25 µg dsRNA per well, roughly 10,000 cells
Timing: 5 days of knock-down before the calcium assay
Conditions: thapsigargin (SERCA pump blocker) to empty calcium stores; entry signal taken 4 min after adding it
Read-out: 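Duplicate raw fluo-4 intensities per well from a plate reader, at rest and four minutes after thapsigargin emptied calcium stores; entry-to-rest ratio filled for only some wells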
Reading the numbers: calcium entry signal: higher = stronger calcium signal after store depletion; resting calcium signal: higher = higher resting calcium signal
Hit rule: 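Called when the plate z-score of the entry-to-rest ratio, mean of duplicates, falls below −3; wells with low overall dye signal (Fmax z below −2) or more than five off-targets excluded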
Meaning of the calls: active = strongly reduced calcium entry; inactive = no strong reduction

| Target gene | reagent | calcium entry signal, replicate 1 (fluorescence units) | calcium entry signal, replicate 2 (fluorescence units) | resting calcium signal, replicate 1 (fluorescence units) | resting calcium signal, replicate 2 (fluorescence units) |
| --- | --- | --- | --- | --- | --- |
| su(Hw) | 1 | 2.95e7 | 3.13e7 | 1.47e7 | 1.59e7 |
| CG7519 | 1 | 2.55e7 | 3.32e7 | 1.13e7 | 1.54e7 |
| Past1 | 1 | 3.59e7 | 4.03e7 | 1.75e7 | 2.05e7 |
| CG11786 | 1 | 4.33e7 | 5.88e7 | 2.06e7 | 2.41e7 |
| CG2926 | 1 | 3.42e7 | 3.31e7 | 1.58e7 | 1.53e7 |
| CG7548 | 1 | 2.92e7 | 3.71e7 | 1.41e7 | 1.72e7 |
| CG13748 | 1 | 3.72e7 | 3.98e7 | 1.76e7 | 1.71e7 |
| CG5973 | 1 | 4.34e7 | – | 2.16e7 | – |
| CG14839 | 1 | 2.49e7 | 2.50e7 | 1.28e7 | 1.20e7 |
| sub | 1 | 3.02e7 | 2.18e7 | 1.45e7 | 1.04e7 |
| CG7739 | 1 | 3.55e7 | 3.35e7 | 1.64e7 | 1.41e7 |
| Ir76b | 1 | 2.96e7 | 5.02e7 | 1.47e7 | 2.06e7 |
| Spn75F | 1 | 3.08e7 | 2.94e7 | 1.40e7 | 1.47e7 |
| CG13801 | 1 | 3.47e7 | 4.17e7 | 1.77e7 | 1.89e7 |
| tea | 1 | 2.68e7 | 3.20e7 | 1.59e7 | 1.65e7 |
| tea | 2 | 2.83e7 | 2.29e7 | 1.33e7 | 1.30e7 |
| kat-60L1 | 1 | 3.92e7 | 4.14e7 | 1.66e7 | 1.89e7 |
| CG10898 | 1 | 2.42e7 | 2.76e7 | 1.04e7 | 1.39e7 |
| CG31548 | 1 | 4.24e7 | 4.53e7 | 2.45e7 | 2.01e7 |
| GC2 | 1 | 4.45e7 | 2.82e7 | 2.06e7 | 1.48e7 |
| Ctu2 | 1 | 3.75e7 | – | 2.06e7 | – |
| Obp49a | 1 | 4.28e7 | 3.49e7 | 2.01e7 | 1.44e7 |
| AstA-R1 | 1 | 4.67e7 | 3.16e7 | 2.12e7 | 1.32e7 |
| AstA-R1 | 2 | 2.20e7 | 3.44e7 | 1.14e7 | 1.60e7 |
| PH4alphaPV | 1 | 3.18e7 | 2.73e7 | 1.64e7 | 1.13e7 |
| HP4 | 1 | 4.60e7 | 3.55e7 | 3.16e7 | 1.47e7 |
| Hsp26 | 1 | 4.57e7 | 4.04e7 | 2.91e7 | 1.68e7 |
| sds22 | 1 | 3.54e7 | 4.84e7 | 1.58e7 | 8.19e7 |
| DhpD | 1 | 3.46e7 | 3.77e7 | 1.62e7 | 2.72e7 |
| Pop2 | 1 | 4.24e7 | 3.71e7 | 2.97e7 | 1.62e7 |
| CG9313 | 1 | 4.20e7 | – | 1.99e7 | – |
| CG14120 | 1 | 3.11e7 | 4.64e7 | 1.58e7 | 1.89e7 |
| CG7872 | 1 | 2.67e7 | 3.23e7 | 1.34e7 | 1.44e7 |
| Baldspot | 1 | 4.70e7 | 7.67e7 | 2.25e7 | 3.03e7 |
| rho-7 | 1 | 3.12e7 | 3.59e7 | 1.76e7 | 1.63e7 |
| CG1603 | 1 | 4.00e7 | – | 2.10e7 | – |
| eve | 1 | 2.80e7 | 2.47e7 | 1.32e7 | 1.16e7 |
| CG9536 | 1 | 5.13e7 | – | 3.13e7 | – |
| CG30037 | 1 | 3.59e7 | 3.83e7 | 1.73e7 | 1.68e7 |
| CG7140 | 1 | 3.01e7 | 5.99e7 | 1.52e7 | 2.66e7 |
| CG4733 | 1 | 3.62e7 | 4.15e7 | 5.82e7 | 1.78e7 |
| CG10175 | 1 | 3.45e7 | 4.09e7 | 1.55e7 | 1.92e7 |
| CG10175 | 2 | 2.83e7 | 4.82e7 | 1.63e7 | 1.78e7 |
| CG10175 | 3 | 2.00e7 | 4.58e7 | 9.42e6 | 2.26e7 |
| CG3987 | 1 | 3.42e7 | 4.90e7 | 1.49e7 | 2.00e7 |
| CG15027 | 1 | 3.97e7 | 2.15e7 | 2.00e7 | 1.11e7 |
| CG13538 | 1 | 4.19e7 | 4.63e7 | 2.05e7 | 2.10e7 |

Already shown: entries from further up.
| Target gene | reagent | calcium entry signal, replicate 1 (fluorescence units) | calcium entry signal, replicate 2 (fluorescence units) | resting calcium signal, replicate 1 (fluorescence units) | resting calcium signal, replicate 2 (fluorescence units) |
| --- | --- | --- | --- | --- | --- |
| Past1 | 1 | 3.59e7 | 4.03e7 | 1.75e7 | 2.05e7 |
| CG11786 | 1 | 4.33e7 | 5.88e7 | 2.06e7 | 2.41e7 |
| CG2926 | 1 | 3.42e7 | 3.31e7 | 1.58e7 | 1.53e7 |
| CG7548 | 1 | 2.92e7 | 3.71e7 | 1.41e7 | 1.72e7 |
| CG13748 | 1 | 3.72e7 | 3.98e7 | 1.76e7 | 1.71e7 |
| CG5973 | 1 | 4.34e7 | – | 2.16e7 | – |
| CG14839 | 1 | 2.49e7 | 2.50e7 | 1.28e7 | 1.20e7 |
| sub | 1 | 3.02e7 | 2.18e7 | 1.45e7 | 1.04e7 |
| CG7739 | 1 | 3.55e7 | 3.35e7 | 1.64e7 | 1.41e7 |
| Ir76b | 1 | 2.96e7 | 5.02e7 | 1.47e7 | 2.06e7 |

Next results follow.
| Target gene | reagent | calcium entry signal, replicate 1 (fluorescence units) | calcium entry signal, replicate 2 (fluorescence units) | resting calcium signal, replicate 1 (fluorescence units) | resting calcium signal, replicate 2 (fluorescence units) |
| --- | --- | --- | --- | --- | --- |
| wwk | 1 | 3.71e7 | 2.59e7 | 1.64e7 | 1.27e7 |
| Spf30 | 1 | 2.39e7 | 3.83e7 | 1.28e7 | 1.76e7 |
| DIP-epsilon | 1 | 4.27e7 | 2.97e7 | 2.03e7 | 1.38e7 |
| DIP-epsilon | 2 | 2.73e7 | 3.45e7 | 1.46e7 | 1.80e7 |
| CG15478 | 1 | 4.46e7 | 4.17e7 | 1.97e7 | 1.86e7 |
| CG13721 | 1 | 2.04e7 | 3.17e7 | 1.09e7 | 1.43e7 |
| Ctl1 | 1 | 3.15e7 | 3.08e7 | 1.67e7 | 1.57e7 |
| CG1927 | 1 | 4.20e7 | 3.65e7 | 1.88e7 | 1.89e7 |
| Yp3 | 1 | 2.06e7 | 1.83e7 | 1.15e7 | 9.33e6 |
| Sxl | 1 | 3.87e7 | 3.79e7 | 2.02e7 | 1.66e7 |
| Sxl | 2 | 3.53e7 | 4.61e7 | 1.78e7 | 2.05e7 |
| Sxl | 3 | 3.61e7 | 3.40e7 | 1.93e7 | 1.63e7 |
| CG8132 | 1 | 2.23e7 | 2.15e7 | 1.32e7 | 1.15e7 |
| Or10a | 1 | 3.07e7 | 3.86e7 | 1.44e7 | 1.87e7 |
| CG15429 | 1 | 1.90e7 | 2.03e7 | 1.09e7 | 1.01e7 |
| CG32100 | 1 | 3.39e7 | 4.62e7 | 1.83e7 | 2.14e7 |
| CG32100 | 2 | 3.32e7 | 4.74e7 | 1.80e7 | 2.18e7 |
| deltaCOP | 1 | 1.83e7 (active) | 1.72e7 | 1.50e7 | 1.18e7 |
| CG10631 | 1 | 4.41e7 | – | 2.13e7 | – |
| RpLP0-like | 1 | 4.37e7 | 3.71e7 | 1.97e7 | 1.82e7 |
| ProRS-m | 1 | 3.76e7 | 4.22e7 | 1.89e7 | 1.67e7 |
| mRpS2 | 1 | 2.53e7 | 2.55e7 | 1.18e7 | 1.09e7 |
| CG7054 | 1 | 5.37e7 | 3.01e7 | 2.47e7 | 1.50e7 |
| CG31741 | 1 | 4.82e7 | 4.08e7 | 2.11e7 | 1.89e7 |
| Hmgcr | 1 | 3.25e7 (active) | 2.09e7 | 2.44e7 | 1.35e7 |
| Lgr1 | 1 | 2.40e7 | 3.03e7 | 2.81e7 | 1.30e7 |
| Saf-B | 1 | 4.62e7 | 3.66e7 | 2.09e7 | 1.75e7 |
| CG1902 | 1 | 3.09e7 | 2.97e7 | 1.41e7 | 1.45e7 |
